Paper PMC8079276

T1: UDP-N-acetylglucosamine-peptide N-acetylglucosaminyltransferase (mouse (endogenous in MEFs)) (UniProt Q8CGY8)
T1 sequence: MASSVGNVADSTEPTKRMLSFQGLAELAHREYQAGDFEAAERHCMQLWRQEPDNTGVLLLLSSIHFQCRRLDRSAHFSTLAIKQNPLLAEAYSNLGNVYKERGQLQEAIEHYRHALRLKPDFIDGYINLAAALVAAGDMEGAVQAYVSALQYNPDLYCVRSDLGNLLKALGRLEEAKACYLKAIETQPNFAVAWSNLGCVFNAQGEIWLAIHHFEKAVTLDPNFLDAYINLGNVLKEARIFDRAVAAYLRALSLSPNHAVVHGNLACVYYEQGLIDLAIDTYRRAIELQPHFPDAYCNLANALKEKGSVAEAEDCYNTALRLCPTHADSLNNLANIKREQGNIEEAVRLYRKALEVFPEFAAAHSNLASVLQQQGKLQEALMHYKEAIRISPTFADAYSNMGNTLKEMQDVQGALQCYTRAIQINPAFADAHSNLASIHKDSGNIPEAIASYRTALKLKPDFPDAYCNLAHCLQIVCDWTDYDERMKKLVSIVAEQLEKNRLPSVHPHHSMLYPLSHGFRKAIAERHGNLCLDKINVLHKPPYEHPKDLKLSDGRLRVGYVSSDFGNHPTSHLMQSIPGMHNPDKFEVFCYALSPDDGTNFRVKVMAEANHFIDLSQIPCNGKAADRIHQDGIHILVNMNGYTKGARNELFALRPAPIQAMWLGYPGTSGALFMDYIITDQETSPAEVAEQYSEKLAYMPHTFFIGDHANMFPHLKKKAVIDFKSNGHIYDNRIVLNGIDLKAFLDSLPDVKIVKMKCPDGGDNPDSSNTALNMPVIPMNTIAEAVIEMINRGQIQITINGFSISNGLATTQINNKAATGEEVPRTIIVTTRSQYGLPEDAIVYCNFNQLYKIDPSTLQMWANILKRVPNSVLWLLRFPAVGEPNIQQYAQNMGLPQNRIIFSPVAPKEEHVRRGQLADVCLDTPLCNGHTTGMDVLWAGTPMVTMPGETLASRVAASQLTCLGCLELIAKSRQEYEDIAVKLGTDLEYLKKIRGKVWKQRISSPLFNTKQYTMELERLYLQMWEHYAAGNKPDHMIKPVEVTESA

B1: Ppfibp1 (protein, UniProt Q8C8U0 1-969)
chain: MMSDASDMLAAALEQMDGIIAGSKALEYSNGIFDCQSPTSPFMGSLRALHLVEDLRGLLEMMETDEKEGLRCQIPDSTAEVLIEWLQNQMTNGHLPGNGDVYQERLARLENDKESLVLQVSVLTDQVEAQGEKIRDLEFCLEEHREKLNATEEMLQQELLSRTSLETQKLELMAEISNLKLKLTAVEKDRLDYEDRFRDTEGLIQEINDLRLKVNEMDGERLQYEKKLKSTKDELASLKEQLEEKECEVKRLQERLVCKAKGEGIEVLDRDIEVQKMKKAVESLMAANEEKERKIEDLRQCLSRYRKMQDPAVLAQGQDSECEGLFHSSSISTLLDAQGFSDLERSTSSTPGMGSPSRDLLHTSAPEEFHTSVLQASIPSLLPPSVDVDTCEKPKLPTKPETSFEEGDGRAILGAAAEVSLSDGVSTSSLQKSSSLGNLKKEASDGTDKAPTDSRTFGTLPPKVPGHEASVDDNPFGTRKARSSFGRGFFKIKSGKRTASAPNLAETEKETAEHLNLAGTSRSKGSQGTSPFPMSPPSPDSRKKSRGIMRLFGKLRRSQSTTFNPDDMSEPEFKRGGTRATAGPRLGWSRDLGQSNSDLDMPFAKWTKEQVCSWLAEQGLGSYLSSGKHWIISGQTLLQASQQDLEKELGIKHSLHRKKLQLALQALGSEEETNYGKLDFNWVTRWLDDIGLPQYKTQFDEGRVDGRMLHYMTVDDLLSLKVVSVLHHLSIKRAIQVLRINNFEPNCLRRRPSDENSITPSEVQQWTNHRVMEWLRSVDLAEYAPNLRGSGVHGGLMVLEPRFNVETMAQLLNIPPNKTLLRRHLATHFNLLIGAEAQHQKRDAMELPDYVLLTATAKVKPKKLTFSNFGNLRKKKHEDGEEYVCPMELGQASGSSQKGFRPGLDMRLYEEDDLDRLEQMEDSEGTVRQIGAFSEGINNLTHMLKEDDMFKDFAARSPSASITDEDSNV
B2: Zfp281 (protein, UniProt Q99LI5 1-893)
chain: MKIGSGFLSGGGGPSSSGGSGSGGSSGSASGGSGGGRRAEMEPTFPQSMVMFNHRLPPVTSFTRPAGTAAPPPQCVLSSSTSAAPAAEPPPPPAPDMTFKKEPAASAAAFPSQRTSWGFLQSLVSIKQEKPADPEEQPSHHHHHHHHYGGLFAGAEERSPGLGGGEGGSHGVIQDLSLLHQHAQQQPAQHHRDVLLSSGSRTDEHGNQEPKQDANVKKAKRPKPESQGIKAKRKPSASSKPLVGEGEGAVLSPSQKPHICDHCSAAFRSSYHLRRHVLIHTGERPFQCSQCSMGFIQKYLLQRHEKIHSREKPFGCDQCSMKFIQKYHMERHKRTHSGEKPYKCDTCQQYFSRTDRLLKHRRTCGEAIAKGAASAEPGSSNHNSMGNLAVLSQGNTSSSRRKSKSKSIAIENKEHKTGKTNESQMSNNINMQSYSVEMPTVSTSGSIIGTGIDELQKRVPKLIFKKGSRKNADKSYLNFVSPLPDVVGQKSLSGKPGGSLGIVSNNSVETISLLQSTSGKQGPISSNYDDAMQFSKKRRYLPTASSNSAFSINVGHMVSQQSVIQSAGVSVLDNEAPLSLIDSSALNAEIKSCHDKSGIPDEVLQSILDQYSGKSETQKEDPFNLTEPRVDLHTSGEHSELVQEENLSPGTQTPSNDKTSMLQEYSKYLQQAFEKSTNAGFTLGHGFQFVSLSSPLHNHTLFPEKQIYTTSPLECGFGQSVTSVLPSSLPKPPFGMLFGSQPGLYLSALDATHQQLTPSQELDDLIDSQKNLETSSAFQSSSQKLTSQKEQQKNLESSTSFQIPSQELASQIDPQKDIEPRTTYQIENFAQAFGSQFKSGSRVPMTFITNSNGEVDHRVRTSVSDFSGYTNMMSDVSEPCSTRVKTPTSQSYR
B3: Zfp644 (protein, UniProt E9QA22 1-1323)
chain: MRLFLHQDVNKPKFRLKVLNDLANNMDDLKINTDITGAKEELQDDNNFISEKDSGVHKPKDCQTSFQKNSSLTRSEELSEDQSEQALSGGQSALFLPASTPAVPTENFPLPTGAVVNGPVSCSSSTKTSNMNEGSVSLTPGQPADQLAAESCSTLKAAADHQLSTPQKASQHQVLFLLSDVAHAKNPTHSIKKVPTSALVGCDVQNSVGNNMKSESTLLSQAEVGQGDASTVVRDDCVSALAVISSGTDEFRSENDTNWDPQKEFIQFLMTSEETVDKPPAHSKVVGLEKKRKRKMDVSKITRYTEDCYSDSGRAPGKSKILQVDFLGQNEEMQAIDSQNYTLSKVKPESAGGDLESVDTFQHLVYNSDKCGEDNSPVHTRTLISNTLKKKCEESDPESPVAFSTEEPSFYPCTKCNVNFREKKHLHRHMMYHLDGNSHFRHLNVPRPYACRECGRTFRDRNSLLKHMIIHQERRQKLMEEIRELKELQDEGRSARLQCPQCVFGTNCPKTFVQHAKTHEKDKRYYCCEECNFMAVTENELECHRGIAHGAAVKCPVVSSEVTQRKTQKKTSVKDSVIGSSKKPATYLCKMCPFTTSARSILKKHTEYLHSSACVDSFGNPLGLDKRKNDSLEESVDVDSTKSLAKQQPSTFPKNSALKQDAKRTFGSSSQSSNFSKFHKRPHRIQKARKSIAQSGVNSCSQNKSPHKNVMVKSSTDQQPKYFHQAPREKPNARADSSYLYRHKYNNYRTIRKSGDSYPLPFKKEVNSLNSLHLFSSSNSHNFISDPHNADTKRPENEKDHKRVAVKRVAKASKKESSAGEDLDSYPDFLHKMTVVVLQKLHSDKKDSYETEDDSSWDNVELGDYTTQAMEEEAYSDLSQEHVNLLPLFKSKIEGQGPGDSAALSYDQNDGFYFEYYEDGGTNSFLQDIHDPQHLENPETPLSKHSSVFHWTDLSLEKKSCPYCPATFETGVGLSNHVRGHLHRAGLSYEARHVVSPEQIATSDKMQHFKRTGNGTPVKRVRKAIEKSETTSEHTCQLCGGWFDTKIGLSNHVRGHLKRLGKTKWDAHKSPICVLNEMMQNEEKYEKILKALNSRRIIPRPFVAQKLSSGDDFLSHNVLPLDEYHNGLKTEALSVSASEEEGLHFLSECGERKPELPSGRKNQSLTLIELLKSRRLGEERNSAVSPHKTHNQTARKRFVQKCVLPLNEDSPLIYQPQKMDLTVHSAIDCKQKKSRSRSGSKKKMLTLPHGADEVYILRCRFCGLVFRGPLSVQEDWIKHLQRHIVNANLPRTGAGMVEVTSLLKKPASITETSFSLLMAEAAS
B4: Acetyl-CoA acetyltransferase, mitochondrial precursor (protein, UniProt Q8QZT1 31-424)
chain: ASKPTLNEVVIVSAIRTPIGSFLGSLASQPATKLGTAAIQGAIEKAGIPKEEVKEVYMGNVIQGGEGQAPTRQATLGAGLPISTPCTTVNKVCASGMKAIMMASQSLMCGHQDVMVAGGMESMSNVPYVMSRGATPYGGVKLEDLIVKDGLTDVYNKIHMGNCAENTAKKMNISRQEQDTYALSSYTRSKEAWDAGKFASEITPITISVKGKPDVVVKEDEEYKRVDFSKVPKLKTVFQKENGTITAANASTLNDGAAALVLMTAEAAQRLNVKPLARIAAFADAAVDPIDFPLAPAYAVPKVLKYAGLKKEDIAMWEVNEAFSVVVLANIKMLEIDPQKVNIHGGAVSLGHPIGMSGARIVVHMAHALKPGEFGLASICNGGGGASALLIEKL
B5: Pdlim2 (protein, UniProt Q8R1G6 1-349)
chain: MALTVDVAGPAPWGFRISGGRDFHTPIIVTKVTERGKAEAADLRPGDIIVAINGQSAENMLHAEAQSKIRQSASPLRLQLDRSQTASPGQTNGEGSLEVLATRFQGSLRTHRDSQSSQRSACFSPVSLSPRPCSPFSTPPPTSPVALSKEDMIGCSFQSLTHSPGLAAAHHLTYPGHPTSQQAGHSSPSDSAVRVLLHSPGRPSSPRFSSLDLEEDSEVFKMLQENRQGRAAPRQSSSFRLLQEALEAEERGGTPAFVPSSLSSQASLPTSRALATPPKLHTCEKCSVNISNQAVRIQEGRYRHPGCYTCADCGLNLKMRGHFWVGNELYCEKHARQRYSMPGTLNSRA

molecular target: T1, UDP-N-acetylglucosamine-peptide N-acetylglucosaminyltransferase (mouse (endogenous in MEFs)); assay: affinity purification with mass spectrometry; endogenous OGT immunoprecipitated (antibody AL24, protein G magnetic beads, TCL buffer: 50 mM Tris HCl, 150 mM NaCl, pH 7.5, 1% NP-40, 2 mM EDTA) from a 1:1:1 mix of SILAC-labelled lysates of WT, H2O2-treated (2.5 mM, 1.5 h) and OGT-null MEFs, precleared with rabbit IgG; in-gel trypsin digestion, LC-MS/MS; interactor if log2 WT or H2O2/null >=1 in 2 or more replicates

**Q.** B1 was tested. Which binding did it give?
**A.** binds

**Q.** Which binding does the source give for B2 here?
**A.** binds

**Q.** For B3, which binding is on record?
**A.** binds

**Q.** B4 was tested. Which binding did it give?
**A.** binds

**Q.** Which binding does the source give for B5 here?
**A.** binds

Results are given in words; binding and its absence hold for the method and conditions named. In cells and extracts the contact can be indirect. Here binding means that the protein was enriched with, or labelled near, the bait; the list need not be complete. Sequences can lack the tags named with a protein.
